Data reported in ChEMBL document CHEMBL4513141, “CO-ADD screening of NIH (USA) - Clinical Collection” (2021).
Some of the results follow. Results with a measured potency or affinity are listed apart.

What follows are molecules tested on Acinetobacter baumannii. Conditions: Concentration 20 uM; ASSAY_TEST Inhibition of Bacterial Growth; detection method Absorption (OD600); MEDIA CAMHB; plate type 384well; NBS; CORNING #3640; time 18 hr.
Molecule `CCCC(C)(COC(N)=O)COC(=O)NC(C)C` (stereo not drawn) [CARISOPRODOL] has an Inhibition of 6.33%. `COc1cc2c(cc1OC)[C@@]13CCN4CC5=CCO[C@H]6CC(=O)N2[C@H]1[C@H]6[C@H]5C[C@H]43` [BRUCINE] showed an Inhibition of 30.1%. Molecule `CCCCCNC(=N)N/N=C/c1c[nH]c2ccc(OC)cc12.O=C(O)/C=C\C(=O)O` [TEGASEROD MALEATE] has an Inhibition of 27.3%. `NC(=O)OCCCc1ccccc1` [PHENPROBAMATE] gave an Inhibition of 19.95%. `Cc1ccnc2c1NC(=O)c1cccnc1N2C1CC1` [NEVIRAPINE] showed an Inhibition of 29.17%. `N=C(NCc1ccc(Cl)cc1)SCCCc1c[nH]cn1` [CLOBENPROPIT] was tested, and the Inhibition was 28.35%. Work on `CN1CCN(C2=Nc3cc(Cl)ccc3Nc3ccccc32)CC1` [CLOZAPINE] yielded an Inhibition of 17.19%. Work on `Brc1c(NC2=NCCN2)ccc2nccnc12` [BRIMONIDINE] yielded an Inhibition of 22.06%. `CN1CC[C@@]23CCCC[C@@H]2[C@@H]1Cc1ccc(O)cc13.O=C(O)C(O)C(O)C(=O)O` gave an Inhibition of 17.08%. `Cl.O=C1CC[C@@]2(O)[C@H]3Cc4ccc(O)c5c4[C@@]2(CCN3CC2CC2)[C@H]1O5` [NALTREXONE HYDROCHLORIDE] was tested, and the Inhibition was 25.96%. `CCN(CC)CCOC(=O)C(O)(c1ccccc1)c1ccccc1.Cl` gave an Inhibition of 22.1%. `c1ccc2c3c([nH]c2c1)CNCC3` [TRYPTOLINE] was tested, and the Inhibition was 22.02%. `CN(C)CCc1c[nH]c2ccc(Cn3cncn3)cc12.O=C(O)c1ccccc1` [RIZATRIPTAN BENZOATE] showed an Inhibition of 21.33%. For `CC(=O)CC(c1ccccc1)c1c([O-])c2ccccc2oc1=O.[Na+]` (stereo not drawn) [WARFARIN SODIUM], the Inhibition was 8.67%. Work on `C=C(C)[C@@H]1[C@H]2OC(=O)[C@@H]1[C@]1(O)C[C@H]3O[C@]34C(=O)O[C@H]2[C@]14C.CC(C)(O)[C@@H]1[C@H]2OC(=O)[C@@H]1[C@]1(O)C[C@H]3O[C@]34C(=O)O[C@H]2[C@]14C` yielded an Inhibition of 14.4%. Work on `Br.COc1ccc2c(c1)[C@]13CCCC[C@@H]1[C@H](C2)N(C)CC3.O` [DEXTROMETHORPHAN HYDROBROMIDE] yielded an Inhibition of 19.84%. Work on `CC(C)C(=O)Nc1ccc([N+](=O)[O-])c(C(F)(F)F)c1` [FLUTAMIDE] yielded an Inhibition of 31.86%. Work on `Br.Br.CN1CC[C@]2(c3cccc(O)c3)Cc3nc4ccccc4cc3C[C@H]2C1.O` yielded an Inhibition of 30.58%. In the case of `O.O=P1(N(CCCl)CCCl)NCCCO1` (stereo not drawn) [CYCLOPHOSPHAMIDE], the Inhibition is reported as 0.33%. `CNCC(O)c1ccc(O)cc1` (stereo not drawn) [OXEDRINE] was tested, and the Inhibition was 11.3%. With `CN1C(=O)COc2c(C(=O)NC3CN4CCC3CC4)cc(Cl)cc21.Cl` (stereo not drawn) the Inhibition was 29.29%. With `CC(NC(C)(C)C)C(=O)c1cccc(Cl)c1.Cl` (stereo not drawn) [BUPROPION HYDROCHLORIDE] the Inhibition was 9.05%. `C#C[C@]1(O)CC[C@H]2[C@@H]3CCC4=CC(=O)CC[C@@H]4[C@H]3CC[C@@]21C` [NORETHINDRONE] gave an Inhibition of 8.92%. For `CNS(=O)(=O)Cc1ccc2[nH]cc(CCN(C)C)c2c1.O=C(O)CCC(=O)O` [SUMATRIPTAN SUCCINATE], the Inhibition was 16.66%. In the case of `C[N+]1(C)CCC(OC(=O)C(O)(c2ccccc2)C2CCCC2)C1.[Br-]` (stereo not drawn) [GLYCOPYRRONIUM BROMIDE], the Inhibition is reported as 23.88%. `COc1cc(-c2ccc(=O)[nH]n2)ccc1OC(F)F` [ZARDAVERINE] gave an Inhibition of 22%. For `CC[C@]1(O)CC[C@H]2[C@@H]3CCC4=CCCC[C@@H]4[C@H]3CC[C@@]21C` [ETHYLESTRENOL], the Inhibition was 5.48%. With `Cl.NCCc1ccc(O)c(O)c1` [DOPAMINE HYDROCHLORIDE] the Inhibition was 19.73%. In the case of `NC1=NC(=O)C(c2ccccc2)O1` (stereo not drawn) [PEMOLINE], the Inhibition is reported as 28.09%. Molecule `CN1CCN2c3ncccc3Cc3ccccc3C2C1` (stereo not drawn) [MIRTAZAPINE] has an Inhibition of 8.49%. For `CCCN1C[C@H](CSC)C[C@@H]2c3cccc4[nH]cc(c34)C[C@H]21.CS(=O)(=O)O` [PERGOLIDE MESYLATE], the Inhibition was 29.64%. In the case of `CNCCC(Oc1ccc(C(F)(F)F)cc1)c1ccccc1.Cl` (stereo not drawn) [FLUOXETINE HYDROCHLORIDE], the Inhibition is reported as 17.55%. With `CN1CCN(C(=O)O[C@H]2c3nccnc3C(=O)N2c2ccc(Cl)cn2)CC1` [ESZOPICLONE] the Inhibition was 4.49%. Molecule `O=C1Nc2ccc(Cl)cc2C(c2ccccc2Cl)=NC1O` (stereo not drawn) [LORAZEPAM] has an Inhibition of 6.82%. With `c1ccc2c(c1)Nc1ccccc1S2` [PHENOTHIAZINE] the Inhibition was 6.97%. `C[C@]12CC[C@H](O)CC1=CC[C@@H]1[C@@H]2CC[C@@]2(C)[C@H]1CC[C@]2(C)O` [METHANDRIOL] was tested, and the Inhibition was 3.72%. For `COC(=O)C[C@](O)(CCCC(C)(C)O)C(=O)O[C@@H]1C(OC)=C[C@]23CCCN2CCc2cc4c(cc2[C@H]13)OCO4` [OMACETAXINE MEPESUCCINATE], the Inhibition was 6.01%. `C[C@]12CC(C=O)=C(O)C[C@@H]1CC[C@@H]1[C@@H]2CC[C@@]2(C)[C@H]1CC[C@]2(C)O` was tested, and the Inhibition was 14.03%. In the case of `CC(C)N(CCC(C(N)=O)(c1ccccc1)c1ccccn1)C(C)C.O=P(O)(O)O` (stereo not drawn) [DISOPYRAMIDE PHOSPHATE], the Inhibition is reported as 26.82%. `c1ccc(Cn2ccnc2)cc1` was tested, and the Inhibition was 19.13%. In the case of `CC(C)NCC(O)COc1cccc2[nH]ccc12` (stereo not drawn) [PINDOLOL], the Inhibition is reported as 24.44%. `CCC(COC(=O)c1cc(OC)c(OC)c(OC)c1)(c1ccccc1)N(C)C.O=C(O)/C=C\C(=O)O` (stereo not drawn) was tested, and the Inhibition was 13.35%. With `CC(C)c1cccc(C(C)C)c1O` [PROPOFOL] the Inhibition was 17.57%. `C[C@H](CCC(=O)O)[C@H]1CC[C@H]2[C@@H]3[C@@H](O)C[C@@H]4C[C@H](O)CC[C@]4(C)[C@H]3CC[C@]12C` [URSODIOL] was tested, and the Inhibition was 6.14%. In the case of `CN[C@@H]1C[C@@H](c2ccc(Cl)c(Cl)c2)c2ccccc21.Cl` [INDATRALINE HYDROCHLORIDE], the Inhibition is reported as 11.95%. `CN1CCC[C@H]1c1cccnc1` [NICOTINE] gave an Inhibition of 11.55%. For `Br.COc1ccc2c3c1O[C@H]1C[C@@H](O)C=C[C@@]31CCN(C)C2` [GALANTAMINE HYDROBROMIDE], the Inhibition was 25.98%. For `CN1C(=O)CN=C(c2ccccc2)c2cc(Cl)ccc21` [DIAZEPAM], the Inhibition was 30.31%. Molecule `CCOC(=O)C1(c2ccccc2)CCN(CCC(C#N)(c2ccccc2)c2ccccc2)CC1.Cl` [DIPHENOXYLATE HYDROCHLORIDE] has an Inhibition of 19.63%. `Cc1c(OCC(F)(F)F)ccnc1C[S+]([O-])c1nc2ccccc2[nH]1` (stereo not drawn) [LANSOPRAZOLE] gave an Inhibition of 5.8%. Work on `Cl.O=C1c2cccc3c2[C@H](CCC3)CN1[C@@H]1CN2CCC1CC2` [PALONOSETRON HYDROCHLORIDE] yielded an Inhibition of 23.39%. For `CC[N+](C)(C)c1cccc(O)c1.[Cl-]` [EDROPHONIUM CHLORIDE], the Inhibition was 20.09%. `O=C(O)C(Cl)Cl` [DICHLOROACETIC ACID] showed an Inhibition of 21.11%. For `CC(C)NCC(O)c1ccc(O)c(O)c1.Cl` (stereo not drawn) [ISOPROTERENOL HYDROCHLORIDE], the Inhibition was 25%. Molecule `COc1ccc(C(CN(C)C)C2(O)CCCCC2)cc1.Cl` (stereo not drawn) [VENLAFAXINE HYDROCHLORIDE] has an Inhibition of 10.29%. `Cc1nnc2n1-c1ccc(Cl)cc1C(c1ccccc1)=NC2` [ALPRAZOLAM] gave an Inhibition of 23.3%. `Cl.FC(F)(F)c1cccc(N2CCNCC2)c1` [N- (3-TRIFLUOROMETHYLPHENYL)PIPERAZINE HYDROCHLORIDE (TFMPP)] showed an Inhibition of 7.81%. Work on `CC(=O)OCC[N+](C)(C)C.[Cl-]` [ACETYLCHOLINE CHLORIDE] yielded an Inhibition of 19.09%. `COCCCOc1ccnc(C[S+]([O-])c2nc3ccccc3[nH]2)c1C` (stereo not drawn) [RABEPRAZOLE] was tested, and the Inhibition was 18.15%. In the case of `CC(COc1ccccc1)N(CCCl)Cc1ccccc1.Cl` (stereo not drawn) [PHENOXYBENZAMINE HYDROCHLORIDE], the Inhibition is reported as 16.81%. Work on `CCOC(=O)c1cncn1[C@H](C)c1ccccc1` [ETOMIDATE] yielded an Inhibition of 8.53%. Molecule `CC(O)(CS(=O)(=O)c1ccc(F)cc1)C(=O)Nc1ccc(C#N)c(C(F)(F)F)c1` (stereo not drawn) [BICALUTAMIDE] has an Inhibition of 15.75%. `Cc1ccc(-c2nc3ccc(C)cn3c2CC(=O)N(C)C)cc1.Cc1ccc(-c2nc3ccc(C)cn3c2CC(=O)N(C)C)cc1.O=C(O)C(O)C(O)C(=O)O` [ZOLPIDEM TARTRATE] was tested, and the Inhibition was 22.8%. Work on `Cl.Oc1ccc2c3c1OC1C(O)CC[C@@]4(O)[C@@H](C2)N(CC2CCC2)CC[C@]314` (stereo partly drawn) yielded an Inhibition of 15.32%. `Cl.Cl.OCCN1CCN(CCCN2c3ccccc3Sc3ccc(C(F)(F)F)cc32)CC1` [FLUPHENAZINE HYDROCHLORIDE] gave an Inhibition of 21.6%. For `Cl.O[C@@H]1CCCC[C@H]1N1CCC(c2ccccc2)CC1`, the Inhibition was 20.4%. `CCOC(=O)C1=C(COCCN)NC(C)=C(C(=O)OC)C1c1ccccc1Cl` (stereo not drawn) [AMLODIPINE] gave an Inhibition of 5.93%. `Cl.O.Oc1ccc2c3c1O[C@H]1c4[nH]c5ccccc5c4C[C@@]4(O)C(C2)N(CC2CC2)CC[C@]314` was tested, and the Inhibition was 9.13%. `CC(C(=O)O)c1ccc(-c2ccccc2)c(F)c1` (stereo not drawn) [FLURBIPROFEN] was tested, and the Inhibition was 19.06%. `O=C(O)CCCc1ccc(N(CCCl)CCCl)cc1` [CHLORAMBUCIL] showed an Inhibition of 17.67%. `CC[C@@H](C(N)=O)N1CCCC1=O` gave an Inhibition of 24.79%. `COc1ccc(CCN)cc1OC` gave an Inhibition of 24.31%. `Oc1ncnc2[nH]ncc12` [ALLOPURINOL] showed an Inhibition of 22.61%.
